Laboratory results reported in ChEMBL document CHEMBL4316593 (Eur J Med Chem, 2019).
The source gives many values for each of these; only a part stands here.

How the values were obtained:
Assay type in all cases: cell-based
Conditions in all cases: U-87MG ATCC
[1] = Inhibition of RTK assessed as Inhibition of RTK/PI3K/AKT/mTOR signaling in human U87 cells assessed as down regulation of FOS gene expression at cytotoxic IC50 measured after 48 hrs relative to control
[2] = Inhibition of RTK/PI3K/AKT/mTOR signaling in human U87 cells assessed as down regulation of GCNT1 gene expression at cytotoxic IC50 measured after 48 hrs relative to control
[3] = Inhibition of RTK/PI3K/AKT/mTOR signaling in human U87 cells assessed as down regulation of C17orf53 gene expression at cytotoxic IC50 measured after 48 hrs relative to control
[4] = Inhibition of RTK/PI3K/AKT/mTOR signaling in human U87 cells assessed as down regulation of OVOL1 gene expression at cytotoxic IC50 measured after 48 hrs relative to control
[5] = Inhibition of RTK/PI3K/AKT/mTOR signaling in human U87 cells assessed as down regulation of HMGB2 gene expression at cytotoxic IC50 measured after 48 hrs relative to control
[6] = Inhibition of RTK/PI3K/AKT/mTOR signaling in human U87 cells assessed as down regulation of GNPTAB gene expression at cytotoxic IC50 measured after 48 hrs relative to control
[7] = Inhibition of RTK/PI3K/AKT/mTOR signaling in human U87 cells assessed as down regulation of MTMR6 gene expression at cytotoxic IC50 measured after 48 hrs relative to control
[8] = Inhibition of RTK/PI3K/AKT/mTOR signaling in human U87 cells assessed as down regulation of TMEM268 gene expression at cytotoxic IC50 measured after 48 hrs relative to control
[9] = Inhibition of RTK/PI3K/AKT/mTOR signaling in human U87 cells assessed as down regulation of RNF25 gene expression at cytotoxic IC50 measured after 48 hrs relative to control
[10] = Inhibition of RTK/PI3K/AKT/mTOR signaling in human U87 cells assessed as down regulation of MPZL3 gene expression at cytotoxic IC50 measured after 48 hrs relative to control
[11] = Inhibition of RTK/PI3K/AKT/mTOR signaling in human U87 cells assessed as down regulation of VAMP7 gene expression at cytotoxic IC50 measured after 48 hrs relative to control
[12] = Inhibition of RTK/PI3K/AKT/mTOR signaling in human U87 cells assessed as down regulation of DCXR gene expression at cytotoxic IC50 measured after 48 hrs relative to control
[13] = Inhibition of RTK/PI3K/AKT/mTOR signaling in human U87 cells assessed as down regulation of SUCO gene expression at cytotoxic IC50 measured after 48 hrs relative to control
[14] = Inhibition of RTK/PI3K/AKT/mTOR signaling in human U87 cells assessed as down regulation of CSNK1A1 gene expression at cytotoxic IC50 measured after 48 hrs relative to control
[15] = Inhibition of RTK/PI3K/AKT/mTOR signaling in human U87 cells assessed as down regulation of QSOX1 gene expression at cytotoxic IC50 measured after 48 hrs relative to control
[16] = Inhibition of RTK/PI3K/AKT/mTOR signaling in human U87 cells assessed as down regulation of PSMD12 gene expression at cytotoxic IC50 measured after 48 hrs relative to control
[17] = Inhibition of RTK/PI3K/AKT/mTOR signaling in human U87 cells assessed as down regulation of MCMBP gene expression at cytotoxic IC50 measured after 48 hrs relative to control
[18] = Inhibition of RTK/PI3K/AKT/mTOR signaling in human U87 cells assessed as up regulation of StAR related lipid transfer domain containing 4 gene expression at cytotoxic IC50 measured after 48 hrs relative to control
[19] = Inhibition of RTK/PI3K/AKT/mTOR signaling in human U87 cells assessed as up regulation of ATP binding cassette subfamily C member 2 gene expression at cytotoxic IC50 measured after 48 hrs relative to control
[20] = Inhibition of RTK/PI3K/AKT/mTOR signaling in human U87 cells assessed as up regulation of solute carrier family 29 member 4 gene expression at cytotoxic IC50 measured after 48 hrs relative to control
[21] = Inhibition of RTK/PI3K/AKT/mTOR signaling in human U87 cells assessed as up regulation of Rho GTPase activating protein 45 gene expression at cytotoxic IC50 measured after 48 hrs relative to control
[22] = Inhibition of RTK/PI3K/AKT/mTOR signaling in human U87 cells assessed as up regulation of beaded filament structural protein 1 gene expression at cytotoxic IC50 measured after 48 hrs relative to control
[23] = Inhibition of RTK/PI3K/AKT/mTOR signaling in human U87 cells assessed as up regulation of B-cell CLL/lymphoma 3 gene expression at cytotoxic IC50 measured after 48 hrs relative to control
[24] = Inhibition of RTK/PI3K/AKT/mTOR signaling in human U87 cells assessed as up regulation of TLC domain containing 2 gene expression at cytotoxic IC50 measured after 48 hrs relative to control
[25] = Inhibition of RTK/PI3K/AKT/mTOR signaling in human U87 cells assessed as up regulation of salvador family WW domain containing protein 1 gene expression at cytotoxic IC50 measured after 48 hrs relative to control
[26] = Inhibition of RTK/PI3K/AKT/mTOR signaling in human U87 cells assessed as up regulation of selenoprotein F gene expression at cytotoxic IC50 measured after 48 hrs relative to control
[27] = Inhibition of RTK/PI3K/AKT/mTOR signaling in human U87 cells assessed as up regulation of translocation associated membrane protein 2 gene expression at cytotoxic IC50 measured after 48 hrs relative to control
[28] = Inhibition of RTK/PI3K/AKT/mTOR signaling in human U87 cells assessed as up regulation of methyltransferase like 8 gene expression at cytotoxic IC50 measured after 48 hrs relative to control
[29] = Inhibition of RTK/PI3K/AKT/mTOR signaling in human U87 cells assessed as up regulation of Cbl proto-oncogene C gene expression at cytotoxic IC50 measured after 48 hrs relative to control
[30] = Inhibition of RTK/PI3K/AKT/mTOR signaling in human U87 cells assessed as up regulation of SERBP1 gene expression at cytotoxic IC50 measured after 48 hrs relative to control
[31] = Inhibition of RTK/PI3K/AKT/mTOR signaling in human U87 cells assessed as up regulation of TKT gene expression at cytotoxic IC50 measured after 48 hrs relative to control
[32] = Inhibition of RTK/PI3K/AKT/mTOR signaling in human U87 cells assessed as up regulation of RPS7 gene expression at cytotoxic IC50 measured after 48 hrs relative to control

Work on `CC(=O)C(=NNc1ccccc1C#N)C(C)=O` yielded a log2FC [1] of -1.93, a log2FC [2] of -2.24 and a log2FC [3] of -1.63. It also gave a log2FC [4] of -1.39, a log2FC [5] of -1.28 and a log2FC [6] of -1.02. For the same compound, the log2FC [7] was -0.883, the log2FC [8] was -0.851 and the log2FC [9] was -0.843. The log2FC [10] was -0.834, the log2FC [11] was -0.725 and the log2FC [12] was -0.676. It also gave a log2FC [13] of -0.651, a log2FC [14] of -0.571 and a log2FC [15] of -0.445. It also gave a log2FC [16] of -0.427, a log2FC [17] of -0.377 and a log2FC [18] of 1.5. For the same compound, the log2FC [19] was 1.42, the log2FC [20] was 1.36 and the log2FC [21] was 1.35. The log2FC [22] was 1.08, the log2FC [23] was 0.984 and the log2FC [24] was 0.974. The log2FC [25] was 0.95, the log2FC [26] was 0.875 and the log2FC [27] was 0.818. The log2FC [28] was 0.772, the log2FC [29] was 0.752 and the log2FC [30] was 0.462. It also gave a log2FC [31] of 0.429 and a log2FC [32] of 0.357.
